For two molecules, binding results are on record in patent US20250339466A1 (published 2025).

By UniProt entry, the sequences of proteins in these tests, tags left out. Where a name states a change or a piece, a line headed by the entry shows the natural chain unless it says otherwise.
UniProt Q02223: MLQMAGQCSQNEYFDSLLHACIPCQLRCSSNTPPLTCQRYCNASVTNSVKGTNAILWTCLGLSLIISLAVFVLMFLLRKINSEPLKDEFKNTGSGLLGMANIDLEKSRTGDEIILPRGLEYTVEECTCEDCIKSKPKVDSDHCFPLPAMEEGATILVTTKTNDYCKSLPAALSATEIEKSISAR

The target of the experiment is human BCMA protein (Octet; construct not specified) (human) (UniProt Q02223). As to the kind of experiment: Octet (BLI), human BCMA.

Numbering of substitutions follows the chain as printed. No constants are given. Whether binding was seen depends on the method and setting. Some binding calls cover weakened binding; strength is not graded here.

B1: Ab 2 (lead anti-BCMA clone, Table 4; printed there as VH: SEQ ID NO: 26, VL: SEQ ID NO: 25) (antibody, V domains shown)
VH: QITLRESGGDVVQPGRSLRLSCAASGFTFSSYAIHWVRQAPGKGLEWVAVTWHDGSNKYYAESVMGRFTISRDNSKNTLYLHMNSLRAEDTGVYYCARAKFGEPQYFQHWGQGTLVTVSS
VL: DIVMTQSPSFLSASVGDRVTITCRASQGINNYLAWYQQKPGIAPKLLIYAASTLQSGVPSRFGGSGSGTEFTLTISSLQPEDFATYYCQQLKSYPFTFGPGTKVEIK
For B1, the binding entry is given as “binds”.

B2: Ab 3 (lead anti-BCMA clone, Table 4; printed there as VH: SEQ ID NO: 10, VL: SEQ ID NO: 27) (antibody, V domains shown)
VH: B1 VH with Q1E, I2V, T3Q, R5V, L115T
VL: B1 VL with N30S, N31S, I42K, G63S, K92N, E105D
B2: the binding entry is on record as “binds”.
